ChEMBL document CHEMBL1125801, “Fluorinated colchicinoids: antitubulin and cytotoxic properties” (J Med Chem, 1991)

Columns and labels:
Assay type in all cases: functional
Conditions in all cases: read-out: ED50 (the source's name)
[1] = test system: P388; assay: Cytotoxic activity against P388 mouse lymphocytic leukemia cell line
[2] = test system: J774; assay: Cytotoxic activity against mouse macrophage cell line J7.COL-100.
[3] = test system: J774; assay: Cytotoxic activity against mouse macrophage cell line J7.VBL-1
[4] = test system: J774.2; assay: Cytotoxic activity against mouse macrophage cell line J774.2
[5] = test system: P388; assay: Cytotoxic activity against P388 mouse lymphocytic leukemia cell line (doxorubicin resistant).

In the case of COc1c(O)cc2c(c1OC)-c1ccc(SC)c(=O)cc1C(NC(=O)C(F)(F)F)CC2 (stereo not given), the EC50 [1] is reported as 6 nM, the EC50 [2] is reported as 4500 nM and the EC50 [3] is reported as 750 nM. It also gave an EC50 [4] of 13 nM and an EC50 [5] of 38 nM.
